These are yes or no findings as the source states them, for the method shown. In cells and extracts the contact can be indirect. Some binding calls cover weakened binding; strength is not graded here.

The chains behind the UniProt entries cited, without tags or fusion partners.
UniProt Q7Z434: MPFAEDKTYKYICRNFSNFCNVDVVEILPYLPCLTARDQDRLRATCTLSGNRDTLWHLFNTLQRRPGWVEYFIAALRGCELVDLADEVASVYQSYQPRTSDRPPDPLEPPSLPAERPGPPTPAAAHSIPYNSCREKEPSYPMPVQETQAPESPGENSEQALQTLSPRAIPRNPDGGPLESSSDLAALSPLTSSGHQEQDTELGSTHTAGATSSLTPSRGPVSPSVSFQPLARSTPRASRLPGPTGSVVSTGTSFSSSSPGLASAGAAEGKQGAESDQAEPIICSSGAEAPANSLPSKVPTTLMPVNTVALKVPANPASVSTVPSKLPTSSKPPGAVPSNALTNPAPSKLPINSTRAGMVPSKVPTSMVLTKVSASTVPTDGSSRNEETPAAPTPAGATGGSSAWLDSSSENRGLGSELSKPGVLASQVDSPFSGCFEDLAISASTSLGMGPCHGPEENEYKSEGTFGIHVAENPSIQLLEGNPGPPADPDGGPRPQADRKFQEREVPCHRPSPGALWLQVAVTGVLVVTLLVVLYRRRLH

This assay addresses mitochondrial antiviral signaling protein (MAVS) (human (endogenous in PBMCs)) (UniProt Q7Z434). In words: co-IP.

B1: phosphorylated IRF3 (protein, UniProt Q14653 1-427)
chain: MGTPKPRILPWLVSQLDLGQLEGVAWVNKSRTRFRIPWKHGLRQDAQQEDFGIFQAWAEATGAYVPGRDKPDLPTWKRNFRSALNRKEGLRLAEDRSKDPHDPHKIYEFVNSGVGDFSQPDTSPDTNGGGSTSDTQEDILDELLGNMVLAPLPDPGPPSLAVAPEPCPQPLRSPSLDNPTPFPNLGPSENPLKRLLVPGEEWEFEVTAFYRGRQVFQQTISCPEGLRLVGSEVGDRTLPGWPVTLPDPGMSLTDRGVMSYVRHVLSCLGGGLALWRAGQWLWAQRLGHCHTYWAVSEELLPNSGHGPDGEVPKDKEGGVFDLGPFIVDLITFTEGSGRSPRYALWFCVGESWPQDQPWTKRLVMVKVVPTCLRALVEMARVGGASSLENTVDLHISNSHPLSLTSDQYKAYLQDLVEGMDFQGPGES
modifications: phosphorylated (site not given)
Regarding B1, the binding entry is “binds”.

Source of the values: doi:10.1101/2025.06.02.657400.
